The values below come from US20020099180A1.

Chains of the proteins cited; added tags and fusions are not shown. Residues count along the entry.
UniProt Q12884, residues 27-760: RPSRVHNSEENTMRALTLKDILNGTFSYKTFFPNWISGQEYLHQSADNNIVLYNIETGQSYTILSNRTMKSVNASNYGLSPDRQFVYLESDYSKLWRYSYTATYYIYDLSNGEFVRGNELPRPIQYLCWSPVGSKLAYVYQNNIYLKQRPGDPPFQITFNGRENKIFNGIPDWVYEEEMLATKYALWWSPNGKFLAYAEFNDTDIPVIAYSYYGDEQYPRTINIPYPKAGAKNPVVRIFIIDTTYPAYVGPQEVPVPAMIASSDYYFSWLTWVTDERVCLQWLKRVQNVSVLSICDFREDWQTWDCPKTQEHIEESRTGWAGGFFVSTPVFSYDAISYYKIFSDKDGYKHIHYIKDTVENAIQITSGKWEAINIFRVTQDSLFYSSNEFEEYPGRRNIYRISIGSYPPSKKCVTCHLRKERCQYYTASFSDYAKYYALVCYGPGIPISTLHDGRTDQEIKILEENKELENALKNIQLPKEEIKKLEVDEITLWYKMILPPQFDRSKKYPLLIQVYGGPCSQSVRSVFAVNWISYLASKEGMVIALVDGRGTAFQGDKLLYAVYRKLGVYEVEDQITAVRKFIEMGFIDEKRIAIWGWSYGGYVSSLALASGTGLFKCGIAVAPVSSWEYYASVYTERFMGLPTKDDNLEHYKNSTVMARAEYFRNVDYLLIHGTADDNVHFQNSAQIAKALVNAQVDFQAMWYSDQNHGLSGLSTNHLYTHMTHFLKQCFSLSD

The target of this assay is fibroblast activating protein alpha (FAPα), purified and immobilised (ELISA wells) (human) (UniProt Q12884). As to the kind of experiment: ELISA. On the technique in general: An ELISA detects its analyte on a solid surface through an enzyme-linked reagent.

These are yes or no findings as the source states them, for the method shown. Some binding calls cover weakened binding; strength is not graded here.

B1: scFv #46 (VH #46, IgG; VL III25) (scFv, not shown: large carriers)
scFv: QVQLVQSGAEVKKDGASVKVSCKATGGTFSGHAISWVRQAPGQRLEWMGEISPMFGTPNYAQSFQGRVTITADESTSYMEVSSLRSEDTATYYCARGANYRALLDYWGQGTLVTVSSASTKGPKLEEGEFSEARVDIQMTQSPSSLSASTGDRVTITCRASQDISSYLAWYQQAPGKAPHLLMSGATTLQTGVPSRFSGSGSGTDFTLTITSLQSEDFATYYCQQYYIYPPTFGQGTRVEIKRTVAAPSVFAA
For the molecule B1, the binding entry was “binds”.

B2: scFv #50 (VH #50, IgD; VL III25) (scFv, not shown: large carriers)
scFv: QVQLVESGGGLVQPGGSLRLSCAASGFTFSNYWMSWVRQAPGKGLEWVANIKQDGSEKYYVDSVKGRFTISRDNAKNSLYLQMNSLRAEDTAVYYCARGSLCTDGSCPTIGPGPNWGQGTLVTVSSAPTKAPKLEEGEFSEARVDIQMTQSPSSLSASTGDRVTITCRASQDISSYLAWYQQAPGKAPHLLMSGATTLQTGVPSRFSGSGSGTDFTLTITSLQSEDFATYYCQQYYIYPPTFGQGTRVEIKRTVAAPSVFAA
Consider B2, for which the binding result is on record as “binds”.

B3: scFv #13 (VH #13, IgG; VL III25) (scFv, not shown: large carriers)
scFv: QVQLVESGGTLVQPGGSLRLSCAASGFTFSSYAMSWIRQAPGKGLEWVSGISASGGYIDYADSVKGRVTISRDNSKNMAYLQMSSLRAEDTALYYCAKGGNYQMLLDHWGQGTLVTVSSASTKGPKLEEGEFSEARVDIQMTQSPSSLSASTGDRVTITCRASQDISSYLAWYQQAPGKAPHLLMSGATTLQTGVPSRFSGSGSGTDFTLTITSLQSEDFATYYCQQYYIYPPTFGQGTRVEIKRTVAAPSVFAA
Consider B3, for which the binding result is reported as “binds”.
